The other results are listed elsewhere or left out. These are further read-outs of the screen, such as a control signal, another cell line or another target. No call is given for them. Most of these compounds were active or inconclusive in the main read-out, so they are no random draw. Potencies come from curve fits of mixed quality, noted in brackets.
Assay: Cell signaling CRE-BLA (Fsk stim)
Settings: CHO CRE-bla reporter (cAMP response element driving beta-lactamase), forskolin EC10, beta-lactamase ratio; measured here: 460 nm blue channel
How it was run: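 CRE-bla CHO reporter cells treated with compound titration plus EC10 NKH 477 (water-soluble forskolin), incubated 3 h at 37 °C; CCF4 loading 2 h at room temperature, 460/530 nm emission ratio read, AC50 values derived for positive or negative modulators.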
In the case of `Cc1ccc(C)c(Cn2nnc3c(=O)[nH]c(C4CCCN(C(=O)C5CCC5)C4)nc32)c1` (centres undefined), the AC50 is reported as 10 µM [rising, partial curve]. With `CC(=O)C(C)Oc1ccc2c3c(c(=O)oc2c1)CCCCC3` (centres undefined) the AC50 was 5.01 µM [rising, partial curve]. With `CCS(=O)(=O)Nc1cc(-c2nc3cccnc3s2)ccc1C` the AC50 was 10 µM [rising, partial curve]. With `COc1ccc(C)cc1-n1nnnc1SCC(=O)c1cc(C)n(Cc2ccco2)c1C` the AC50 was 10 µM [falling, partial curve]. For `C/C=C/C=C/C=O`, the AC50 was 31.6 µM [falling, partial curve, poor fit]. For `COC(=O)c1ccc(CSc2nc3ccccc3c(=O)n2-c2cccc(OC)c2)o1`, the AC50 was 3.98 µM [rising, full curve]. In the case of `COc1ccc(-c2nnc3sc(-c4ccco4)nn23)cc1OC`, the AC50 is reported as 15.8 µM [falling, partial curve, poor fit]. In the case of `O=c1cnc2cncnc2n1Cc1ccc(F)cc1`, the AC50 is reported as 3.98 µM [rising, full curve]. In the case of `O=C(CNC(=O)C1CCCCC1)NCCCO`, the AC50 is reported as 0.631 µM [falling, full curve]. With `CSc1ccc2nnc(-c3cccc(F)c3)n2n1` the AC50 was 25.1 µM [rising, single point]. For `COc1ccccc1CCn1c(=O)c(-c2cc(F)cc(F)c2)nc2cncnc21`, the AC50 was 12.6 µM [rising, partial curve]. In the case of `CC(C)n1c(CCCO)nc2ccccc21`, the AC50 is reported as 0.00316 µM [falling, full curve, poor fit]. With `O=c1[nH]c(=O)n(Cc2ccccc2)c2nc(-c3ccco3)cc(C(F)(F)F)c12` the AC50 was 2.51 µM [rising, full curve]. For `N#CCCn1c(=O)c(-c2cccs2)nc2cnc(Nc3ccccc3)nc21`, the AC50 was 1.58 µM [rising, full curve]. In the case of `O=C(Nc1ccc2c(c1)ncn2C1CCCCC1)c1ccco1`, the AC50 is reported as 12.6 µM [rising, partial curve]. For `Cc1ccc(Cn2c(SCc3cccnc3)nc3c2c(=O)n(C)c(=O)n3C)cc1`, the AC50 was 10 µM [rising, single point]. In the case of `CC(C)=CCc1c2c(c3occ(-c4ccc(O)c(O)c4)c(=O)c3c1O)C=CC(C)(C)O2`, the AC50 is reported as 1.58 µM [falling, partial curve, poor fit]. In the case of `CN(C)c1ccc(NC(=O)CSCc2nc3c(nnn3Cc3ccc(F)cc3)c(=O)[nH]2)cc1`, the AC50 is reported as 0.0126 µM [falling, full curve, poor fit]. With `CCCn1c(=O)c(C)cn2nc(N)nc12` the AC50 was 0.0158 µM [rising, full curve, poor fit].

Source: PubChem BioAssay AID662 (National Center for Advancing Translational Sciences (NCATS), 2007)
